Several values for one entry are separate records, joined by “and”; a condition that tells them apart may be missing. Equal values may be shown once. This is one part of the list. Each value is one well over the wells without odorant, computed here; the data are noisy.
Experiments:
Test in all cases: odorant receptor activation (CRE luciferase / Renilla) (fold of no-odor wells); higher = more activation
Conditions in all cases: 100 µM
[1] = test system: OR5T2 clone 1313
[2] = test system: OR5T2 clone 1428
[3] = test system: OR5T3 clone 1343
[4] = test system: OR5V1 clone 1070
[5] = test system: OR6A2 clone 1489
[6] = test system: OR6B1 R143C clone 1181
[7] = test system: OR6B2 R122C clone 1444
[8] = test system: OR6B3 R261W clone 1445
[9] = test system: OR6C1 V74I/C130Y/L161F/H165D/V246I/R291K clone 1442
[10] = test system: OR6C2 clone 1413
[11] = test system: OR6C3 clone 1424
[12] = test system: OR6C4 I37V clone 1412
[13] = test system: OR6C6 clone 1426
[14] = test system: OR6C65 clone 1459
[15] = test system: OR6C68 A45T clone 1451
[16] = test system: OR6C70 clone 1427
[17] = test system: OR6C74 clone 1441
[18] = test system: OR6C75 clone 1519
[19] = test system: OR6C76 clone 1414
[20] = test system: OR6F1 clone 1039

| Structure (SMILES) | odorant receptor activation [1] | odorant receptor activation [2] | odorant receptor activation [3] | odorant receptor activation [4] | odorant receptor activation [5] | odorant receptor activation [6] | odorant receptor activation [7] | odorant receptor activation [8] | odorant receptor activation [9] | odorant receptor activation [10] | odorant receptor activation [11] | odorant receptor activation [12] | odorant receptor activation [13] | odorant receptor activation [14] | odorant receptor activation [15] | odorant receptor activation [16] | odorant receptor activation [17] | odorant receptor activation [18] | odorant receptor activation [19] | odorant receptor activation [20] |
| --- | --- | --- | --- | --- | --- | --- | --- | --- | --- | --- | --- | --- | --- | --- | --- | --- | --- | --- | --- | --- |
| CC12CCC(C1)C(C)(C)C2=O (stereo not given) [fenchone] | 0.912 | 1.04 | 0.794 | 0.954 | 1.16 | 1.21 | 0.963 | 0.998 | 0.862 | 0.899 | 0.913 | 0.957 | 1.05 | 0.962 | 0.849 | 0.709 | 1.12 | 1.36 | 0.741 | 1.15 |
| CCCCCCCC=O [octyl aldehyde] | 1.3 | 0.749 | 0.951 | 1.12 | 1.06 | 0.827 | 0.717 | 0.616 | 1.05 | 0.744 | 0.662 | 1.06 | 1.13 | 0.765 | 0.989 | 0.735 | 0.701 | 0.835 | 0.694 | 0.985 |
| CC(C)CCC(=O)O [4-methylvaleric acid] | 1.05 | 0.962 | 1.06 | 1.29 | 1.11 | 0.976 | 1.22 | 0.812 | 1.37 | 1.48 | 0.632 | 0.906 | 1.23 | 0.883 | 0.664 | 0.966 | 1.59 | 0.849 | 1.06 | 1.6 |
| CCCCCCCCCCC=O [undecanal] | 1.25 | 1.12 | 1.01 | 0.99 | 1.18 | 1.01 | 1.05 | 0.987 | 1.08 | 1.18 | 0.988 | 1.06 | 1.35 | 1.2 | 1.1 | 1.33 | 1.06 | 0.952 | 0.965 | 1.32 |
| C=CCc1ccc(O)c(OC)c1 [eugenol] | 0.813 and 1.54 | 1.14 and 1.35 | 1.99 and 1.21 | 1.74 and 1.61 | 2.12 and 1.2 and 1.36 | 1.89 and 1.44 | 1.2 and 1.25 | 1.24 and 1.43 | 1.47 and 1.41 | 1.35 | 1.41 and 1.24 | 1.3 and 1.29 | 1.5 and 1.59 | 2.7 and 1.13 and 1.02 | 1.39 | 1.77 and 1.17 | 1.88 and 1.78 | 1.24 and 1.23 and 1.53 | 1.36 and 1.13 | 2.66 and 1.67 |
| c1cnccn1 [pyrazine] | 0.816 | 1.23 | 0.903 | 0.983 | 0.888 | 1.1 | 1.36 | 0.949 | 1.4 | 1.06 | 1.12 | 1.21 | 0.895 | 1.03 | 1.09 | 1.25 | 1.17 | 0.904 | 1.11 | 0.921 |
| c1ccc(Oc2ccccc2)cc1 [diphenyl ether] | 0.988 | 1.24 | 1.01 | 0.987 | 1.06 | 1.03 | 1.07 | 1.2 | 1.05 | 1.08 | 0.87 | 0.972 | 1.09 | 1.07 | 0.88 | 0.972 | 1.03 | 1.1 | 0.802 | 0.985 |
| CC(C)C(=O)O [isobutyric acid] | 1.18 and 0.694 | 0.852 | 1.09 and 0.868 | 0.592 | 0.801 and 1.21 | 0.92 | 0.627 | 1.02 | 0.859 | 0.725 | 0.707 | 0.719 | 0.856 | 1.13 and 0.972 | 0.898 | 0.82 | 0.693 | 1.2 and 1.13 | 0.648 | 1.28 |
| CC1=CCC(C(C)(C)O)CC1 (stereo not given) [terpineol] | 1.13 | 1.19 | 1.14 | 1.07 | 0.942 | 1.54 | 0.937 | 0.971 | 0.92 | 0.916 | 1.02 | 0.886 | 0.925 | 0.888 | 0.936 | 1.07 | 1.05 | 0.998 | 0.962 | 2.25 |
| C=CCSCC=C [diallyl sulfide] | 0.846 | 1.33 | 1.07 | 1.03 | 1.23 | 1.26 | 0.975 | 1.13 | 1.12 | 1.23 | 1.01 | 1.06 | 1.2 | 1.07 | 1.04 | 0.942 | 1.2 | 1.27 | 0.983 | 1.11 |
| CC/C=C\CCO [cis-3-hexen-1-ol] | 1.09 | 0.248 | 0.815 | 1.14 | 0.905 | 1.12 | 0.265 | 0.37 | 0.145 | 0.241 | 0.169 | 0.244 | 0.203 | 1.11 | 0.93 | 0.225 | 0.155 | 0.99 | 0.15 | 0.856 |
| C=CCc1ccc(OC)c(OC)c1 [eugenol methyl ether] | 1.45 | 1.44 | 1.14 | 1.54 | 1.33 | 1.57 | 1.45 | 1.54 | 1.46 | 1.52 | 1.27 | 1.57 | 1.59 | 1.12 | 1.03 | 1.4 | 1.86 | 1.4 | 1.26 | 1.95 |
| O=C1CCCCCCCCCCCCCCO1 [pentadecalactone] | 0.85 | 1.06 | 0.997 | 0.826 | 0.805 | 0.681 | 1.48 | 1.37 | 1.4 | 1.2 | 1.2 | 0.899 | 1.22 | 0.922 | 0.96 | 1.18 | 1.41 | 0.838 | 0.972 | 0.749 |
| COc1cc(C)ccc1O [2-methoxy-4-methylphenol] | 0.952 | 1.04 | 1.16 | 1.59 | 0.877 | 1.04 | 1.21 | 0.573 | 1.42 | 0.952 | 1.05 | 1.08 | 1.05 | 0.755 | 0.663 | 1.22 | 1.65 | 0.929 | 0.87 | 1.51 |

Two records picked at random from the list so far:

| Structure (SMILES) | odorant receptor activation [1] | odorant receptor activation [2] | odorant receptor activation [3] | odorant receptor activation [4] | odorant receptor activation [5] | odorant receptor activation [6] | odorant receptor activation [7] | odorant receptor activation [8] | odorant receptor activation [9] | odorant receptor activation [10] | odorant receptor activation [11] | odorant receptor activation [12] | odorant receptor activation [13] | odorant receptor activation [14] | odorant receptor activation [15] | odorant receptor activation [16] | odorant receptor activation [17] | odorant receptor activation [18] | odorant receptor activation [19] | odorant receptor activation [20] |
| --- | --- | --- | --- | --- | --- | --- | --- | --- | --- | --- | --- | --- | --- | --- | --- | --- | --- | --- | --- | --- |
| CC12CCC(C1)C(C)(C)C2=O (stereo not given) [fenchone] | 0.912 | 1.04 | 0.794 | 0.954 | 1.16 | 1.21 | 0.963 | 0.998 | 0.862 | 0.899 | 0.913 | 0.957 | 1.05 | 0.962 | 0.849 | 0.709 | 1.12 | 1.36 | 0.741 | 1.15 |
| c1ccc(Oc2ccccc2)cc1 [diphenyl ether] | 0.988 | 1.24 | 1.01 | 0.987 | 1.06 | 1.03 | 1.07 | 1.2 | 1.05 | 1.08 | 0.87 | 0.972 | 1.09 | 1.07 | 0.88 | 0.972 | 1.03 | 1.1 | 0.802 | 0.985 |
